Measurements published in paper PMC4065073.

By UniProt entry, the sequences of proteins in these tests, tags left out.
UniProt P35579: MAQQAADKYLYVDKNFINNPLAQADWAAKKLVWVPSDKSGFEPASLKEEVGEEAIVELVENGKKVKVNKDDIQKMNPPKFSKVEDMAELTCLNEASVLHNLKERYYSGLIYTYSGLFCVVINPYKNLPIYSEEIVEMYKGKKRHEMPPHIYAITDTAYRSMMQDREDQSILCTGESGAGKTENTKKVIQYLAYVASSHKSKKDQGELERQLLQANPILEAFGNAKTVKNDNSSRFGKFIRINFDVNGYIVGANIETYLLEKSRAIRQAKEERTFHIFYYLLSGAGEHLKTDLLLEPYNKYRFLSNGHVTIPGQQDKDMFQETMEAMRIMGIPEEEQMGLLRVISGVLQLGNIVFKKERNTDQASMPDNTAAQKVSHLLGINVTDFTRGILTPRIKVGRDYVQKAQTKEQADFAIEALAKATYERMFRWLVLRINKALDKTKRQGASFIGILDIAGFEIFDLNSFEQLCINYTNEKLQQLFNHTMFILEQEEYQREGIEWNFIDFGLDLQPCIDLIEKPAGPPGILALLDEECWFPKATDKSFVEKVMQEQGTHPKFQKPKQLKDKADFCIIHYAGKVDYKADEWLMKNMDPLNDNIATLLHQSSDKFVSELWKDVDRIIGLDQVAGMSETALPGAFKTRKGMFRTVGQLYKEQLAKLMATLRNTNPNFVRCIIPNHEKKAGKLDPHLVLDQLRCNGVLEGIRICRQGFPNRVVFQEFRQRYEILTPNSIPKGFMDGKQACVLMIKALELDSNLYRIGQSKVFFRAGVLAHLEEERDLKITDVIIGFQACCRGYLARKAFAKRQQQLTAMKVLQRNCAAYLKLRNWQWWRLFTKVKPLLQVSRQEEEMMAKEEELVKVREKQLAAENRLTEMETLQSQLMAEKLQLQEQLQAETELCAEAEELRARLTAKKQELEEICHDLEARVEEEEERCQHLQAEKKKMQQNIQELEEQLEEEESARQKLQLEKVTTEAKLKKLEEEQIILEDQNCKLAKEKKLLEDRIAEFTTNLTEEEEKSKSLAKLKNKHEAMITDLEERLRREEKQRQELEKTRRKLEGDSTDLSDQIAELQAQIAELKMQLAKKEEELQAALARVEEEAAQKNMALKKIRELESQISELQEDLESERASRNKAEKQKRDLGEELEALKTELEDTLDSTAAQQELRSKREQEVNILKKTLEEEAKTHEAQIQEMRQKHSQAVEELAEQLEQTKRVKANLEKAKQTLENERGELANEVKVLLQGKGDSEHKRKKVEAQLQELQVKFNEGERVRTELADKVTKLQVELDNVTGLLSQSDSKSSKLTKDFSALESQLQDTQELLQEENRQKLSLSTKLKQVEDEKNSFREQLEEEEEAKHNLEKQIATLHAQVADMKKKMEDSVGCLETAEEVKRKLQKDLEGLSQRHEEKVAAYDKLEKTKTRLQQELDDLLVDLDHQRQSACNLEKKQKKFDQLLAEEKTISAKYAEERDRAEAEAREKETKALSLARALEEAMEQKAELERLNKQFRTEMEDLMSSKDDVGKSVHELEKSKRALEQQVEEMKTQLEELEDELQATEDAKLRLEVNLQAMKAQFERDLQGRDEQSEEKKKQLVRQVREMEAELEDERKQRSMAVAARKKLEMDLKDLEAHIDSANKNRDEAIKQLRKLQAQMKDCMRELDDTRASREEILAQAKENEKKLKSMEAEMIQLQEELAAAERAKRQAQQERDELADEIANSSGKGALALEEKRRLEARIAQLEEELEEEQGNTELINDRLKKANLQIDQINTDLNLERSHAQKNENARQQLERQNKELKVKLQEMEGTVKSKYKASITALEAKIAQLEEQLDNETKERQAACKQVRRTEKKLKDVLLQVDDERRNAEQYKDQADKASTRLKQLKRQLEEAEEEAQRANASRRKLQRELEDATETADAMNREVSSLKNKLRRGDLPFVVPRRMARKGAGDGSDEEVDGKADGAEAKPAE
UniProt P29590: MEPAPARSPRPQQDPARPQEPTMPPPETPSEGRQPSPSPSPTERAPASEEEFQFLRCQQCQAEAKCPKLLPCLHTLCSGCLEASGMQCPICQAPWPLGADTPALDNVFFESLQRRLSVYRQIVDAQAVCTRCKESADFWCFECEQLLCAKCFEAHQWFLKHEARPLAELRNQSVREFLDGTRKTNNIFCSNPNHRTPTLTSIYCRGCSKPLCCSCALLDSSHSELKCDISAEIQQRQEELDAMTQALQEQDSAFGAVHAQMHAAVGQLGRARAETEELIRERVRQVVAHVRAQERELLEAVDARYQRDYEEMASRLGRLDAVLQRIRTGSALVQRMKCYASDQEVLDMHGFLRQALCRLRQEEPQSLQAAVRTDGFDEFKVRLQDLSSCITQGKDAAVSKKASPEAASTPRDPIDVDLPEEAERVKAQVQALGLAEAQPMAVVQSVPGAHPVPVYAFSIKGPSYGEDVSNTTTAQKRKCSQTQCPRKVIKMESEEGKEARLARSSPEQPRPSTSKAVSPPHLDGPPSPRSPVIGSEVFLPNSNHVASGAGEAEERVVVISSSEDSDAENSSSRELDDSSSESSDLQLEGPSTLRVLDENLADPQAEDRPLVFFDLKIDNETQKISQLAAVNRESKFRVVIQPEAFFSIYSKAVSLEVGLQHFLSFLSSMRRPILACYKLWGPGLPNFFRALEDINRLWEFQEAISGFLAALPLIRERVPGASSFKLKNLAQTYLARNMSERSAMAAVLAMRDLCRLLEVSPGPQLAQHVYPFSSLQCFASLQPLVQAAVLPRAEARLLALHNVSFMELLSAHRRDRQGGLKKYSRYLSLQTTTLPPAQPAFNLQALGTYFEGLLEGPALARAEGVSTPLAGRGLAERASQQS
UniProt P26038: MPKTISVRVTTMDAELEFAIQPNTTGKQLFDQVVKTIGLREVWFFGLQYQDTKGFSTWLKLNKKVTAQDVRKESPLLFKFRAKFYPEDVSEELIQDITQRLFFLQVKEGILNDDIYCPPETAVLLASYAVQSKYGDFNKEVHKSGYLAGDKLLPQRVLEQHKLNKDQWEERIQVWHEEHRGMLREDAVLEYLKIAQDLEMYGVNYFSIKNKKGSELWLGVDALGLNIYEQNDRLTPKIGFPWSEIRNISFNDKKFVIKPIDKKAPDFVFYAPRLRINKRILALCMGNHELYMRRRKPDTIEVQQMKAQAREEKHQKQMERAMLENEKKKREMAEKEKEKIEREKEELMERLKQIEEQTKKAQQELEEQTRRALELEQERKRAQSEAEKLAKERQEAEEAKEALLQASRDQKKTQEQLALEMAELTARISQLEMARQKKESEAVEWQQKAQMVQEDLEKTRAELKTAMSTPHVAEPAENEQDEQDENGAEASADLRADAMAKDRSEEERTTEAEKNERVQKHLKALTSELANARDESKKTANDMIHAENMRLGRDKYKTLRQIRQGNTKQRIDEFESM
UniProt Q8VDD5: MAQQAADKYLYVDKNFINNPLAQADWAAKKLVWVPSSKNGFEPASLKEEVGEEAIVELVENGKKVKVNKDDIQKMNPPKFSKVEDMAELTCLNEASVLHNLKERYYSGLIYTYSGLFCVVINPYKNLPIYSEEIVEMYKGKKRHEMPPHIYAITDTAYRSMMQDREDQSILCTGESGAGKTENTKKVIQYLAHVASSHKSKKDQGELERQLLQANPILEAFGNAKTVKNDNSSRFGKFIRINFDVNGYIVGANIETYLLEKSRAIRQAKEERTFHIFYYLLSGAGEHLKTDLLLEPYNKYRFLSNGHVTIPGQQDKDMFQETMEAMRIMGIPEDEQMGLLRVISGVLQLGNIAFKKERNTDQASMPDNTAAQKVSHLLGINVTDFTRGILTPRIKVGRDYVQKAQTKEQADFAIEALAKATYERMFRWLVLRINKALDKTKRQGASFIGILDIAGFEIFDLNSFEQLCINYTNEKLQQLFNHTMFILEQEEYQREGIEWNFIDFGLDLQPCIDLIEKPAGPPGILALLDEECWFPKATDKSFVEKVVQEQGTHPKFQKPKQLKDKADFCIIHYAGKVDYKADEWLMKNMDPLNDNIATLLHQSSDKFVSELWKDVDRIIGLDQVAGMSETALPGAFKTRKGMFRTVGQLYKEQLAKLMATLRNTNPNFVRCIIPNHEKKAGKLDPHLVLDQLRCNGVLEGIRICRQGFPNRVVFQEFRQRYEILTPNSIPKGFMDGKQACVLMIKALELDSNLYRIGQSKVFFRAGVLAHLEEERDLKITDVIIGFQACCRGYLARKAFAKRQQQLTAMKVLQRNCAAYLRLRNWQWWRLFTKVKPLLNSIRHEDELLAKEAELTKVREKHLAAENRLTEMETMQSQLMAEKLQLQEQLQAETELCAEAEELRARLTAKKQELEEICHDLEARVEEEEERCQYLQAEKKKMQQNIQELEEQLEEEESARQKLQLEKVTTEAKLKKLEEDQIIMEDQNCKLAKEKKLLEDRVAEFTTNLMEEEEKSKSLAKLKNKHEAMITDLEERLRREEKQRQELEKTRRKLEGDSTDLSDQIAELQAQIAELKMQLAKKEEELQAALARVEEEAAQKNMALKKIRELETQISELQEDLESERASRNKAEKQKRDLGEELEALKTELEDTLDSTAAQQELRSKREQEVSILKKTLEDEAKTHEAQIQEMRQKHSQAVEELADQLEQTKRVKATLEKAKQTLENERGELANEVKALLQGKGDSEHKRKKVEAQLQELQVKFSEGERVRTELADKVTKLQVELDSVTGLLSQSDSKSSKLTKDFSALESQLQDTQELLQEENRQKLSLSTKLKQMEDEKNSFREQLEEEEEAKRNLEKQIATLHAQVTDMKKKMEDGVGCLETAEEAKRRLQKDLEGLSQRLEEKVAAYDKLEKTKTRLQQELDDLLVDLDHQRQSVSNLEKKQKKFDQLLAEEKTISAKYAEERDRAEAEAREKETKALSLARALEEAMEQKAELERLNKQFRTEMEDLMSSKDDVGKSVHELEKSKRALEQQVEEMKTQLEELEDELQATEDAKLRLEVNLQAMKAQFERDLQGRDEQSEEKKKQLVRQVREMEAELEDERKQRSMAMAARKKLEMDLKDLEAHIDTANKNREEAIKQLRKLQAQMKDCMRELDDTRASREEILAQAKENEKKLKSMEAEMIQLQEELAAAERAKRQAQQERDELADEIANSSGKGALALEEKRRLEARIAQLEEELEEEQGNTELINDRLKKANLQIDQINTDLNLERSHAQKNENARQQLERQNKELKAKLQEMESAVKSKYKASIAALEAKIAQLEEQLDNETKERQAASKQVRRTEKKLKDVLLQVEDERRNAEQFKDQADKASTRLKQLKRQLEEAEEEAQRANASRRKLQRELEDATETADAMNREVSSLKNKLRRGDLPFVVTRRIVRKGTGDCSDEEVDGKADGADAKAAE
UniProt P26043: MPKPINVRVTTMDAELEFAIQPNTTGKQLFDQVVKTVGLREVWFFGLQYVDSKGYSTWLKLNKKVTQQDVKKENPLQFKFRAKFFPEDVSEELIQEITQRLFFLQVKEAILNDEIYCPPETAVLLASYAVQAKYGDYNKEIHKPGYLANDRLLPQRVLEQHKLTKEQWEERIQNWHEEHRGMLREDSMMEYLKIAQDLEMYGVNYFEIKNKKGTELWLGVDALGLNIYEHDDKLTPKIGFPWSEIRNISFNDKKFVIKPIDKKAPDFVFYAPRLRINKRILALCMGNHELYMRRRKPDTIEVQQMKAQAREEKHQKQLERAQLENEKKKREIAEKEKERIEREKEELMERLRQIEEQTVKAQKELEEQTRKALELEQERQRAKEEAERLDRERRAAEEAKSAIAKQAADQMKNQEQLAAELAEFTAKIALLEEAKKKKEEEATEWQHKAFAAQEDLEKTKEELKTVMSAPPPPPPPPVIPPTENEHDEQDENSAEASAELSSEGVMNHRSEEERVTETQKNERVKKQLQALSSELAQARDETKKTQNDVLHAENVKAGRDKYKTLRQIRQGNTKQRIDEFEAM
UniProt P26041: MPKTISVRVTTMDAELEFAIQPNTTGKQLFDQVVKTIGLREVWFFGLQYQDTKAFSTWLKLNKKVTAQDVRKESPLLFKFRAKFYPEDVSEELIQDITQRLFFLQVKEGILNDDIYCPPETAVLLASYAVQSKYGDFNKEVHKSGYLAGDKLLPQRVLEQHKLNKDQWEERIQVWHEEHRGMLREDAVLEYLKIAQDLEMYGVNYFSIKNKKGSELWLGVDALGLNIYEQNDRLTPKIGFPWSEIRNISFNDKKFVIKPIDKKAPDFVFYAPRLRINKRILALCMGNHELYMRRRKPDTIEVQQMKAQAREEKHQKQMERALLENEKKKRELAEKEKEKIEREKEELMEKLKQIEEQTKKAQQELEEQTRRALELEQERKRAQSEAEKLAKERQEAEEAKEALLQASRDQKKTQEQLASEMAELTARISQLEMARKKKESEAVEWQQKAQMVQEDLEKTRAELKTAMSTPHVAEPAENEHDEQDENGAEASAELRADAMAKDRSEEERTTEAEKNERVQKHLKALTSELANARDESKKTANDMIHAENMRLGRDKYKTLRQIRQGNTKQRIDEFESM

B1: LPP (protein, UniProt Q93052 1-612)
chain: MSHPSWLPPKSTGEPLGHVPARMETTHSFGNPSISVSTQQPPKKFAPVVAPKPKYNPYKQPGGEGDFLPPPPPPLDDSSALPSISGNFPPPPPLDEEAFKVQGNPGGKTLEERRSSLDAEIDSLTSILADLECSSPYKPRPPQSSTGSTASPPVSTPVTGHKRMVIPNQPPLTATKKSTLKPQPAPQAGPIPVAPIGTLKPQPQPVPASYTTASTSSRPTFNVQVKSAQPSPHYMAAPSSGQIYGSGPQGYNTQPVPVSGQCPPPSTRGGMDYAYIPPPGLQPEPGYGYAPNQGRYYEGYYAAGPGYGGRNDSDPTYGQQGHPNTWKREPGYTPPGAGNQNPPGMYPVTGPKKTYITDPVSAPCAPPLQPKGGHSGQLGPSSVAPSFRPEDELEHLTKKMLYDMENPPADEYFGRCARCGENVVGEGTGCTAMDQVFHVDCFTCIICNNKLRGQPFYAVEKKAYCEPCYINTLEQCNVCSKPIMERILRATGKAYHPHCFTCVMCHRSLDGIPFTVDAGGLIHCIEDFHKKFAPRCSVCKEPIMPAPGQEETVRIVALDRDFHVHCYRCEDCGGLLSEGDNQGCYPLDGHILCKTCNSARIRVLTAKASTDL
B2: HK1 (protein, UniProt P19367 1-917)
chain: MIAAQLLAYYFTELKDDQVKKIDKYLYAMRLSDETLIDIMTRFRKEMKNGLSRDFNPTATVKMLPTFVRSIPDGSEKGDFIALDLGGSSFRILRVQVNHEKNQNVHMESEVYDTPENIVHGSGSQLFDHVAECLGDFMEKRKIKDKKLPVGFTFSFPCQQSKIDEAILITWTKRFKASGVEGADVVKLLNKAIKKRGDYDANIVAVVNDTVGTMMTCGYDDQHCEVGLIIGTGTNACYMEELRHIDLVEGDEGRMCINTEWGAFGDDGSLEDIRTEFDREIDRGSLNPGKQLFEKMVSGMYLGELVRLILVKMAKEGLLFEGRITPELLTRGKFNTSDVSAIEKNKEGLHNAKEILTRLGVEPSDDDCVSVQHVCTIVSFRSANLVAATLGAILNRLRDNKGTPRLRTTVGVDGSLYKTHPQYSRRFHKTLRRLVPDSDVRFLLSESGSGKGAAMVTAVAYRLAEQHRQIEETLAHFHLTKDMLLEVKKRMRAEMELGLRKQTHNNAVVKMLPSFVRRTPDGTENGDFLALDLGGTNFRVLLVKIRSGKKRTVEMHNKIYAIPIEIMQGTGEELFDHIVSCISDFLDYMGIKGPRMPLGFTFSFPCQQTSLDAGILITWTKGFKATDCVGHDVVTLLRDAIKRREEFDLDVVAVVNDTVGTMMTCAYEEPTCEVGLIVGTGSNACYMEEMKNVEMVEGDQGQMCINMEWGAFGDNGCLDDIRTHYDRLVDEYSLNAGKQRYEKMISGMYLGEIVRNILIDFTKKGFLFRGQISETLKTRGIFETKFLSQIESDRLALLQVRAILQQLGLNSTCDDSILVKTVCGVVSRRAAQLCGAGMAAVVDKIRENRGLDRLNVTVGVDGTLYKLHPHFSRIMHQTVKELSPKCNVSFLLSEDGSGKGAALITAVGVRLRTEASS
B3: GSS (protein, UniProt P48637 1-474)
chain: MATNWGSLLQDKQQLEELARQAVDRALAEGVLLRTSQEPTSSEVVSYAPFTLFPSLVPSALLEQAYAVQMDFNLLVDAVSQNAAFLEQTLSSTIKQDDFTARLFDIHKQVLKEGIAQTVFLGLNRSDYMFQRSADGSPALKQIEINTISASFGGLASRTPAVHRHVLSVLSKTKEAGKILSNNPSKGLALGIAKAWELYGSPNALVLLIAQEKERNIFDQRAIENELLARNIHVIRRTFEDISEKGSLDQDRRLFVDGQEIAVVYFRDGYMPRQYSLQNWEARLLLERSHAAKCPDIATQLAGTKKVQQELSRPGMLEMLLPGQPEAVARLRATFAGLYSLDVGEEGDQAIAEALAAPSRFVLKPQREGGGNNLYGEEMVQALKQLKDSEERASYILMEKIEPEPFENCLLRPGSPARVVQCISELGIFGVYVRQEKTLVMNKHVGHLLRTKAIEHADGGVAAGVAVLDNPYPV

target: non-muscle myosin heavy chain IIA (human) (human (endogenous in human conditionally immortalized podocytes)) (UniProt P35579); assay: affinity purification with mass spectrometry; the same approach repeated with human conditionally immortalized podocytes cultured at growth permissive and growth restrictive conditions; cross-linked lysate, anti-NMMHCIIA antibody columns, LC/MS

Row | Molecule | binding
1 | FLNC (from UniProt Q14315 1-2725) | binds
2 | NMMHCIIC (human) (from UniProt Q7Z406 1-1995) | binds
3 | TPM2 (from UniProt P07951 1-284) | binds
4 | radixin (human) (from UniProt P35241 1-583) | binds
5 | NMMHCIIB (human) (from UniProt P35580 1-1976) | binds
6 | PML (from UniProt P29590 1-882) | binds
7 | GPI (from UniProt P06744 1-558) | binds
8 | NUMA1 (from UniProt Q14980 1-2115) | binds
9 | moesin (human) (from UniProt P26038 1-577) | binds
10 | B1 | binds
11 | B2 | binds
12 | B3 | binds

target: non-muscle myosin heavy chain IIA (mouse) (mouse (endogenous in murine conditionally immortalized podocytes)) (UniProt Q8VDD5); assay: affinity purification with mass spectrometry; murine conditionally immortalized podocytes, one week at growth restrictive conditions; total lysate (T-Per) cross-linked in paraformaldehyde; columns of rabbit polyclonal antibody against the C-terminal dodecapeptide of NMMHCIIA; tryptic peptides by LC/MS on an LTQ ion trap, searched against the human nonredundant database

Row | Molecule | binding
13 | NMMHCIIC (mouse) (from UniProt Q6URW6 1-2000) | binds
14 | radixin (mouse) (from UniProt P26043 1-583) | binds
15 | moesin (mouse) (from UniProt P26041 1-577) | binds
16 | NMMHCIIB (mouse) (from UniProt Q61879 1-1976) | binds

Results are given in words; binding and its absence hold for the method and conditions named. Binding seen in cells or lysates may run through a third protein. These calls come from enrichment with a bait or labelling near it, and not all partners need be listed.
